The supplement of paper PMC4604168 (melanoma cell lines)
This is one part of the list. Repeats are few or missing, and single values can be far off.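 Cells were imaged in 1,536-well plates, and nuclei stained with an antibody against cleaved PARP were counted against all DNA-stained nuclei to give the apoptosis fraction. Screening doses were chosen to leave most cells alive, and resting and induced cleaved-PARP levels differ strongly between cell lines.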

Test system: RVH-421
Assay: cleaved PARP positive nuclei fraction relative to DMSO control; melanoma cells; higher = more apoptosis
Details: library dose: low library concentration; 72 h

Row | SMILES | cleaved PARP positive nuclei fraction
1 | CO[C@H]1C[C@@H]2CC[C@@H](C)[C@@](O)(O2)C(=O)C(=O)N2CCCC[C@H]2C(=O)O[C@H]([C@H](C)C[C@@H]2CC[C@@H](OCCO)[C@H](OC)C2)CC(=O)[C@H](C)/C=C(\C)[C@@H](O)[C@@H](OC)C(=O)[C@H](C)C[C@H](C)/C=C/C=C/C=C/1C [everolimus] + C[C@@H]1CCN(C(=O)CC#N)C[C@@H]1N(C)c1ncnc2[nH]ccc12 [CP690550] (first compound 0.02 µM, partner dose 1 µM) | 46.1%
2 | CO[C@H]1C[C@@H]2CC[C@@H](C)[C@@](O)(O2)C(=O)C(=O)N2CCCC[C@H]2C(=O)O[C@H]([C@H](C)C[C@@H]2CC[C@@H](OCCO)[C@H](OC)C2)CC(=O)[C@H](C)/C=C(\C)[C@@H](O)[C@@H](OC)C(=O)[C@H](C)C[C@H](C)/C=C/C=C/C=C/1C [everolimus] + Oc1cc(-c2nc(-c3ccccc3)[nH]c2-c2ccncc2)ccc1Cl [L779450] (first compound 0.02 µM, partner dose 0.2 µM) | 118%
3 | CO[C@H]1C[C@@H]2CC[C@@H](C)[C@@](O)(O2)C(=O)C(=O)N2CCCC[C@H]2C(=O)O[C@H]([C@H](C)C[C@@H]2CC[C@@H](OCCO)[C@H](OC)C2)CC(=O)[C@H](C)/C=C(\C)[C@@H](O)[C@@H](OC)C(=O)[C@H](C)C[C@H](C)/C=C/C=C/C=C/1C [everolimus] + Cn1cncc1[C@@](N)(c1ccc(Cl)cc1)c1ccc2c(c1)c(-c1cccc(Cl)c1)cc(=O)n2C [tipifarnib] (first compound 0.02 µM, partner dose 0.01 µM) | 131%
